# Laboratory results taken from PubChem BioAssay (Tox21).
# Sequences of proteins named here, by UniProt entry; tags and fusion partners are left off.
# UniProt P28223, whole entry, looked up: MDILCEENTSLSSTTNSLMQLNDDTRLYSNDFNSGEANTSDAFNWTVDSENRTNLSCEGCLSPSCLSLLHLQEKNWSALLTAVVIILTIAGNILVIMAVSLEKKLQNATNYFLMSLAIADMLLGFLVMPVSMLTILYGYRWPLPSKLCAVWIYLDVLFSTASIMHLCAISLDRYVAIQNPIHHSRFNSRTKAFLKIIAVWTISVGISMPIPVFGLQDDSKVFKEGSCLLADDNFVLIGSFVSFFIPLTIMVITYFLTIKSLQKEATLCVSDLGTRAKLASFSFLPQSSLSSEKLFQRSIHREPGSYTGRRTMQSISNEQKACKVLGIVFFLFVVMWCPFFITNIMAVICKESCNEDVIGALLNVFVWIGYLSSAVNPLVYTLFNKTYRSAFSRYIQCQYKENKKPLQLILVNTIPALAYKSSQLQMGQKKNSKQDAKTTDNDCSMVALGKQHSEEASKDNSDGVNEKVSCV
# UniProt P14416, whole entry, looked up: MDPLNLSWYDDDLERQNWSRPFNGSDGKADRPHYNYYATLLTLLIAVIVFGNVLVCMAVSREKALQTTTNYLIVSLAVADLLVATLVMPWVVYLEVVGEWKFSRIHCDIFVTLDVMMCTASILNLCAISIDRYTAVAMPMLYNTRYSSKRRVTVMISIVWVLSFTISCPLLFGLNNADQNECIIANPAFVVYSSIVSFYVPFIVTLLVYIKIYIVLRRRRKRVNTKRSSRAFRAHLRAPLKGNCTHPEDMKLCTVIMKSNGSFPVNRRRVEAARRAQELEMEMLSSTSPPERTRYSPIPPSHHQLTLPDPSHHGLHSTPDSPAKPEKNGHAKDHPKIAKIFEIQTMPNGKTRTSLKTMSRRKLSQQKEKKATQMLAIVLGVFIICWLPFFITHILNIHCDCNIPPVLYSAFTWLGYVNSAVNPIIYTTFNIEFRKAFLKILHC
# “And” between values parts separate entries of the source, which are not always exact repeats. Equal values may be shown once. Inconclusive results, whose numbers are uncertain, are shown with a selection of clear calls. For some assays here: Potencies beside an inconclusive call are fits to weak or partial responses and may not hold up. The source made the active and inactive calls. Unless noted, calls follow the shape of the full dose curve.
# What was measured:
# [1] = p53 small molecule agonists, cell-based qHTS assay with human liver microsomes: qHTS cell viability counter screen (AID 1963579); also: nearly all actives have a fitted effect of over 45% in size; also: potency is read from the fitted curve at half-maximal effect
# In short: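 Cytotoxicity counter screen: p53RE-bla, 4,000 cells/well; 5 h settle, 37 C/5% CO2; cpd + HLM 0.5 mg/mL + NADPH 0.5 mg/mL (final); 16 h, 37 C; CellTiter-Glo, 30 min RT, luminescence.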
# [2] = molecular target: 5-hydroxytryptamine receptor 2A (Homo sapiens) (UniProt P28223); assay: 5-hydroxytryptamine receptor 2A (HTR2A) small molecule antagonists, cell-based qHTS assay (AID 1963586); also: nearly all actives have a fitted effect of over 45% in size; also: potency is read from the fitted curve at half-maximal effect
# In short: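 Antagonist-mode intracellular calcium assay: DOI (4 nM) added after 5 min compound pre-incubation at room temperature to dye-loaded HTR2A-CHO cells. Fluorescence followed for 3 min, sampled every second.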
# [3] = molecular target: Beta-2 adrenergic receptor (Homo sapiens) (UniProt P07550); assay: Adrenergic beta2 receptor (ADRB2) small molecule agonists, cell-based qHTS assay (AID 1963593); conditions: CHO-ADRB2 cells, cAMP HTRF, 30 min;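 also: CHO cells stably overexpressing human ADRB2; % is scaled to controls: 0 for no effect and ±100 for the full control effect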
# In short: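 CHO cells stably over-expressing ADRB2 were plated overnight at 37C, then dosed with compounds plus a stimulation mix containing 100uM IBMX and 25uM Ro-20-1724 for 0.5hr at room temperature. cAMP was measured by HTRF competition, 1hr.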
# [4] = cAMP Responsive Elements (CRE) small molecule agonists, cell-based qHTS assay (AID 1963590); conditions: CRE-bla HEK293T, beta-lactamase FRET ratio, 3 h; activation: at 92.4 µM (top of the series) unless noted; also: potency is read from the fitted curve at half-maximal effect
# In short: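 FRET-based beta-lactamase readout (LiveBLAzer B/G, 2 h RT) quantified CRE activation in HEK 293T CRE-bla cells after 3 h treatment with DMSO-dissolved compounds.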
# [5] = cAMP Responsive Elements (CRE) small molecule antagonists, cell-based qHTS assay (AID 1963591; active = well fitted inhibition curve with a large enough effect in the signal ratio in the repeat runs, not every such curve was filed as active; inconclusive = weak or mixed curves, or effect the other way; the % refers to the signal ratio; also: potency is read from the fitted curve at half-maximal effect; as to activity change, negative = inhibition: % is scaled to controls: 0 for no effect and ±100 for the full control effect); conditions: CRE-bla HEK293T, beta-lactamase FRET ratio; activity change, negative = inhibition: at 92.4 µM (top of the series) unless noted
# In short: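 qHTS in CRE-bla HEK 293T cells: compound in DMSO, then 0.25 uM NKH477 (final), 3 h at 37 °C/5% CO2; beta-lactamase FRET read-out after 2 h substrate incubation.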
# [6] = molecular target: D(2) dopamine receptor (Homo sapiens) (UniProt P14416); assay: Dopamine D2 receptor (DRD2) small molecule antagonists, cell-based qHTS assay (AID 1963595; active = well fitted inhibition curve with a large enough effect in the signal ratio in the repeat runs, with a control signal flat; inconclusive = weak or mixed curves, or effect the other way; the % refers to the signal ratio; also: % is scaled to controls: 0 for no effect and ±100 for the full control effect); conditions: HEK293-DRD2 cAMP HTRF antagonist mode; activity change, negative = inhibition: at 92.4 µM (top of the series) unless noted
# In short: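 In this cell-based antagonist screen, compounds act for 10 min at room temperature before a 30 min challenge with 12 nM quinpirole and 200 nM NKH477. cAMP is quantified by HTRF competition in DRD2-HEK293 cells containing 0.1 mM Ro20-1724.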
# [7] = activation: at 92.4 µM (top of the series) unless noted
smiles,measurement,setting,value
CCc1nnc(NS(=O)(=O)c2ccc(N)cc2)s1,Potency,[1],"inconclusive: 56.1 µM [rising, partial curve, poor fit]"
same,Potency,[2],inactive
same,Potency,[3]; [7],inactive
COc1cc(C(C)C)c2c(c1)S(=O)(=O)N(COc1cc(=O)n3cccc(OCCN4CCCCC4)c3n1)C2=O,Potency,[1],"inconclusive: 7.73 µM [rising, partial curve, poor fit]"
same,Potency,[4],inconclusive: 14.6 µM [fluorescent]
same,Potency,[5],"inconclusive: 11.6 µM [fluorescent, partial curve]"
same,activation,[3]; [7],inconclusive: -43.9% [at 19 µM]
same,"activity change, negative = inhibition",[6],inconclusive: -11.9% [at 18.9 µM]
CC1(C)O[C@@H]2C[C@H]3[C@@H]4CCC5=CC(=O)C=C[C@]5(C)[C@@]4(F)[C@@H](O)C[C@]3(C)[C@]2(C(=O)CO)O1,Potency,[1],"inconclusive: 7.93 µM [rising, single point]"
same,Potency,[4],"inconclusive: 30.8 µM [rising, partial curve]"
same,Potency,[5],"inconclusive: 61.5 µM [fluorescent, single point]"
same,"activity change, negative = inhibition",[5],inconclusive: 10% [at 42.4 µM]
same,activation,[3]; at 42.5 µM (top of the series),inconclusive: -26.4%
same,activation,[3]; at 92.4 µM (top of the series),inconclusive: -77.2% and inconclusive: -34%
CCCCC(CC)COC(=O)COc1ccc(Cl)cc1Cl (stereo not given),Potency,[1],inactive
same,Potency,[4],"inconclusive: 31.1 µM [rising, partial curve]"
NC(=S)NNC(N)=S,Potency,[1],inactive
same,Potency,[2],"inconclusive: 47.2 µM [inhibitor, single point]"
same,activation,[3]; [7],inconclusive: -2.04%
same,activation,[3]; at 92.4 µM (top of the series),inactive: 19.5%

# Shown with tabs: entries from further up
smiles	measurement	setting	value
NC(=S)NNC(N)=S	activation	[3]; [7]	inconclusive: -2.04%
same	activation	[3]; at 92.4 µM (top of the series)	inactive: 19.5%
